This passage reports binding results from US20070293656A1, “COLLAGEN BINDING PEPTIDES” (Epix Pharmaceuticals, Inc., priority 2005, published 2007).

Protein sequences, listed by entry. Tags and fused reporters are not part of them. Lines headed by an entry give the natural chain unless they say otherwise; changes in a name come on top.
UniProt P02454: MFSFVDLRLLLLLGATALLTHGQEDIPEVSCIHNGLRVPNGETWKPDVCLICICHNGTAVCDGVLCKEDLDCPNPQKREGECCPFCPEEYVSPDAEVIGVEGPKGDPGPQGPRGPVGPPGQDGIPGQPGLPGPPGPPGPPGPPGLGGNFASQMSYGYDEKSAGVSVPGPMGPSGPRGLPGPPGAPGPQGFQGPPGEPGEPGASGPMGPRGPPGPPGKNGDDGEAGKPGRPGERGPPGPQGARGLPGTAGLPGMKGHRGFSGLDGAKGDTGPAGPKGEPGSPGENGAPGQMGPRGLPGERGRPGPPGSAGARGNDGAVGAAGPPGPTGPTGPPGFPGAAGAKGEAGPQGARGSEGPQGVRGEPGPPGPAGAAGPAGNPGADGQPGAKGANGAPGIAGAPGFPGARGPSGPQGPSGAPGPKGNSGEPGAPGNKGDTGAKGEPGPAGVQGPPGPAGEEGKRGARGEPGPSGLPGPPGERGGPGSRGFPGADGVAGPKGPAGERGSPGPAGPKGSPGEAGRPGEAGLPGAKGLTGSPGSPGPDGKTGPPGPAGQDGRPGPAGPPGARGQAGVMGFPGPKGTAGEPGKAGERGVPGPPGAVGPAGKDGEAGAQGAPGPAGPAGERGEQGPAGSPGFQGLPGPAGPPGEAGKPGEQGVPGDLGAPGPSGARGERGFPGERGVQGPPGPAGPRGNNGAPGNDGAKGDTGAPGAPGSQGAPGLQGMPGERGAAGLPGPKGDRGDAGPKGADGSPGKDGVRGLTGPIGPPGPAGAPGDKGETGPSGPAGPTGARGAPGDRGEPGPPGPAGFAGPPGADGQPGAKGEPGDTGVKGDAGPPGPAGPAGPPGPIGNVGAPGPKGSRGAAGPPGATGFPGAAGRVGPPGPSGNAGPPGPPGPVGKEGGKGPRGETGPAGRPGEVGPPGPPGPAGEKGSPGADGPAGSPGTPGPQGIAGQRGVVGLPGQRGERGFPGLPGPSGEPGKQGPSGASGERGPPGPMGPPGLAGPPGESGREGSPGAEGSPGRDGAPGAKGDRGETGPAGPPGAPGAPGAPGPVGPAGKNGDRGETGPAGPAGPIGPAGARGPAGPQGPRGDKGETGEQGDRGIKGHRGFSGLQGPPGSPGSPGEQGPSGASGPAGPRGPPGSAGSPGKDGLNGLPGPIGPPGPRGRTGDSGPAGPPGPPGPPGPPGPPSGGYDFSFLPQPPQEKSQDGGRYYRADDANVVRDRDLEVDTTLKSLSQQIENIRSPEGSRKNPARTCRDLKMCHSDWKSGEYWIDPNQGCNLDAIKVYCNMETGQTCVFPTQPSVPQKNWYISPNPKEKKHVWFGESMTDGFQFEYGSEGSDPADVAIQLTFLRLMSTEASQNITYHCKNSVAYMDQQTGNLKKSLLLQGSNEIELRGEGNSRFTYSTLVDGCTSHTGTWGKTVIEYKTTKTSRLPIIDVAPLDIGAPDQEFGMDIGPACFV
UniProt P02466: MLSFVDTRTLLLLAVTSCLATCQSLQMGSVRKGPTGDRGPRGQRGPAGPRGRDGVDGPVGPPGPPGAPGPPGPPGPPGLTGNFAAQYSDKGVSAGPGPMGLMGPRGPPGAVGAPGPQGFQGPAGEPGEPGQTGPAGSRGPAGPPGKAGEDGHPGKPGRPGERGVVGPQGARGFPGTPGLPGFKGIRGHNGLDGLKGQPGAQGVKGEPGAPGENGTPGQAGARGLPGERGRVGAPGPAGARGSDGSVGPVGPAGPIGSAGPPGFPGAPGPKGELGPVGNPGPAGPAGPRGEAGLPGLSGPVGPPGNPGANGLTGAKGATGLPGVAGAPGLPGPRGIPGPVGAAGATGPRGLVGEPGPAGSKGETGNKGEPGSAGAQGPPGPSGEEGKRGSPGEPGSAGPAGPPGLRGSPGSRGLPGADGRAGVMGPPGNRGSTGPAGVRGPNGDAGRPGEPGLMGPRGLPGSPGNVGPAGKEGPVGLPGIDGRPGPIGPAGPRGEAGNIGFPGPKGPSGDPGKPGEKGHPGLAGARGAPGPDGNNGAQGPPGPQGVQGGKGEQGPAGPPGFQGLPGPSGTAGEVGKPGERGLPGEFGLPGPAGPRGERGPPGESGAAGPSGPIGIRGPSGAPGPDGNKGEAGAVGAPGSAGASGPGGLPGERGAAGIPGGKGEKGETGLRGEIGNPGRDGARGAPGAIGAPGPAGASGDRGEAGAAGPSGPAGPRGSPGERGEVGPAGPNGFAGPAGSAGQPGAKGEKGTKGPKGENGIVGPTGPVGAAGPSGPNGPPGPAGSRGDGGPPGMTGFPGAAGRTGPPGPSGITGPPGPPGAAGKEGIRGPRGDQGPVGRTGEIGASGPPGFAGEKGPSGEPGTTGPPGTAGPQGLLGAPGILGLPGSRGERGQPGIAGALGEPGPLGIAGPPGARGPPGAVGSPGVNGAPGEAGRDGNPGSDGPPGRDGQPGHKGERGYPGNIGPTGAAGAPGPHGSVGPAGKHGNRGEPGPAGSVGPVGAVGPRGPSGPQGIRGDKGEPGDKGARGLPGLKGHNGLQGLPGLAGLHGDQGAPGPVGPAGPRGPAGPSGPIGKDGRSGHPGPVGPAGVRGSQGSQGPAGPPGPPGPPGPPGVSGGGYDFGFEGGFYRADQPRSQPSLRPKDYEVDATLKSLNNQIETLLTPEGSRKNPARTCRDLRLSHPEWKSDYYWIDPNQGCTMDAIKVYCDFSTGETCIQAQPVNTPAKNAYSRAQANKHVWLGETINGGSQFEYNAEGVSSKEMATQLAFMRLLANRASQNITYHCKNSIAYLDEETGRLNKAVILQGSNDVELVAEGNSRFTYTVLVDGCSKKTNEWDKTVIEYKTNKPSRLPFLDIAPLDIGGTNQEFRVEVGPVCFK

This experiment addresses rat collagen (acid soluble, type I, rat tail, Upstate 08-115) (rat) (UniProt P02454+P02466). In words: MR imaging of centrifuged rat type I collagen gel.

These are yes or no findings as the source states them, for the method shown. Some entries that bind do so weakly or less than the wild type.

In the case of GQWHCTTRFPHHYCLYG (N-terminal Glu-DTPA-Gd on the G linker; C-terminal PEG-H) [Compound ID 1022], the binding result is “binds”.
